The data set can be described thus: peptide made by a vendor (Fmoc solid-phase peptide synthesis; Fmoc-Asp(OtBu)-Wang Resin). As to conditions: whole synthesis.

No end group written: not given here.

Take HKQLVFFEED: the “final HPLC purity” value is recorded as more than 95%.

The values are drawn from US8361967B2 (Tianjin Medical University, priority 2008, dated 2013).
